Test results reported in the supplement of paper PMC10689618.
This is one part of the list. Single values are uncertain, as repeats are few or missing.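 Labelled rat cortical synaptosomes were engulfed by primary human fetal astrocytes. Engulfment equaled a red/green ratio, corrected for calcein live-cell signal and normalized to the plate median. Compounds were toxic when calcein dropped over 30%, and reduced phagocytosis when below 70% of the median above 5 µM.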

Tests used:
[1] = test system: Human fetal astrocytes; test: loss of total cells relative to no-compound high-control median (toxicity); higher = more toxic (fewer cells); conditions: 24 h
[2] = test system: Human fetal astrocytes; test: synaptosome phagocytosis (pHrodo/calcein intensity ratio) relative to plate median of data wells; higher = more phagocytosis; conditions: 24 h

SMILES	loss of total cells ([1]; 1.39 µM)	loss of total cells ([1]; 2.78 µM)	loss of total cells ([1]; 5.56 µM)	loss of total cells ([1]; 11.11 µM)	loss of total cells ([1]; 22.22 µM)	synaptosome phagocytosis ([2]; 1.39 µM)	synaptosome phagocytosis ([2]; 2.78 µM)	synaptosome phagocytosis ([2]; 5.56 µM)	synaptosome phagocytosis ([2]; 11.11 µM)	synaptosome phagocytosis ([2]; 22.22 µM)
CC1(C)C2CC(=O)[C@]3(C)C(CC[C@@]4(C)[C@H](c5ccoc5)OC(=O)[C@H]5O[C@]543)[C@@]2(C)C(=O)C[C@H]1O (stereo not given in full)	-17.8%	12%	-9.2%	1.9%	1.1%	104%	104%	119%	93.7%	81.5%
COc1cc([C@@H]2c3cc4c(cc3[C@H](O)[C@H]3COC(=O)[C@@H]23)OCO4)cc(OC)c1OC	-0.8%	6.9%	3.7%	9.5%	11.1%	106%	72.7%	93.8%	75.1%	116%
CN(CC[C@H](N)CC(=O)N[C@H]1C=C[C@H](n2ccc(N)nc2=O)O[C@@H]1C(=O)O)C(=N)N	-4.1%	-11.2%	-11%	11.5%	3%	87%	98.8%	94.7%	70.8%	54.5%
CC(C)=CCCC1(C)C=Cc2c(O)c3c(c(CC=C(C)C)c2O1)OC12C(CC4CC1C(C)(C)OC2(C/C=C(/C)C(=O)O)C4O)C3=O (stereo not given)	33.6%	21.3%	26.1%	20.5%	20.5%	129%	113%	89.3%	100%	81.9%
COc1cc2c(cc1O)CCN[C@@H]2C	3.3%	14.1%	8.8%	20.3%	8.1%	137%	105%	110%	129%	86.1%
CN1CCCCC1c1ccc(-c2cccnc2)nc1 (stereo not given)	-12.3%	-12.6%	2.2%	17.6%	19.3%	97.6%	112%	87.8%	106%	74.7%
COc1cc([C@@H]2c3cc4c(cc3[C@H](O)[C@H]3COC(=O)[C@H]23)OCO4)cc(OC)c1OC	28.2%	25.3%	30.3%	27.3%	37.4%	76.5%	102%	69.5%	116%	106%
CC(C)=CCCC1(C)C=Cc2c(O)c3c(c(CC=C(C)C)c2O1)OC12C(=CC4CC1C(C)(C)OC2(C/C=C(/C)C(=O)O)C4O)C3=O (stereo not given)	-3.2%	25.6%	18.8%	44.8%	42.4%	108%	83.2%	24.8%	13.3%	0%
CCC(N)C(O)c1ccc(O)c(O)c1 (stereo not given)	-12.9%	24.6%	-4.3%	52.8%	29%	84.3%	107%	73%	141%	113%
COc1ccc2c(c1O)-c1c(OC)c(OC)cc3c1[C@H](C2)N(C)CC3	4%	17.7%	-0.7%	8.8%	3.8%	39.4%	72.5%	86.6%	47.5%	30.9%
CC1=C2[C@H]3OC(=O)[C@@H](C)[C@@H]3CC[C@@]2(C)C=CC1=O	-13.1%	-12.6%	2.2%	14.9%	11.9%	93%	74.6%	121%	157%	116%
COc1ccc(C(CN(C)C)C2(O)CCCCC2)cc1 (stereo not given)	-41.9%	26.2%	13%	44.3%	3.4%	56.2%	122%	87.6%	118%	85%
c1ccc2c(c1)sc1ccccc12	13.9%	-31.5%	-3.5%	1.4%	17.9%	110%	112%	141%	93.6%	80.6%
Cc1c(O)c(O)cc2c1CC=C1[C@@]2(C)CC[C@@]2(C)[C@@H]3C[C@](C)(C(=O)O)CC[C@]3(C)CC[C@]12C	10.5%	17%	15.9%	58.2%	72.7%	140%	115%	88.3%	26.4%	6.3%
CC(=O)O[C@H]1C[C@@H](OC(C)=O)C(C)(C)C2C[C@@H](OC(C)=O)[C@]3(C)C(CC[C@@]4(C)[C@H](c5ccoc5)C(=O)[C@H]5O[C@]543)[C@]21C (stereo not given in full)	1.8%	2%	32.1%	-20%	2.6%	128%	118%	167%	130%	140%
COc1ccc2c3c([nH]c2c1)C(C)=NCC3	19.9%	17%	-63%	5.4%	15.9%	13.3%	75.5%	0%	63%	65.8%
C=C(C)c1cc2cc(C(C)=O)c(O)cc2o1	-9.1%	-10%	27.5%	45.2%	-35.9%	90.1%	138%	121%	137%	82.1%
Oc1cc(Cl)ccc1Oc1ccc(Cl)cc1Cl	-14.5%	-47.6%	0.6%	35.1%	32.1%	110%	138%	103%	69.3%	17.7%
C=C(C)[C@H]1Cc2c(ccc3c(=O)c4c(oc23)COc2cc(OC)c(OC)cc2-4)O1	36.6%	-12.6%	19.1%	46.5%	13%	115%	79.8%	77.8%	117%	137%

In another format: two of the compounds above.
SMILES,loss of total cells ([1]; 1.39 µM),loss of total cells ([1]; 2.78 µM),loss of total cells ([1]; 5.56 µM),loss of total cells ([1]; 11.11 µM),loss of total cells ([1]; 22.22 µM),synaptosome phagocytosis ([2]; 1.39 µM),synaptosome phagocytosis ([2]; 2.78 µM),synaptosome phagocytosis ([2]; 5.56 µM),synaptosome phagocytosis ([2]; 11.11 µM),synaptosome phagocytosis ([2]; 22.22 µM)
CC1(C)C2CC(=O)[C@]3(C)C(CC[C@@]4(C)[C@H](c5ccoc5)OC(=O)[C@H]5O[C@]543)[C@@]2(C)C(=O)C[C@H]1O (stereo not given in full),-17.8%,12%,-9.2%,1.9%,1.1%,104%,104%,119%,93.7%,81.5%
Cc1c(O)c(O)cc2c1CC=C1[C@@]2(C)CC[C@@]2(C)[C@@H]3C[C@](C)(C(=O)O)CC[C@]3(C)CC[C@]12C,10.5%,17%,15.9%,58.2%,72.7%,140%,115%,88.3%,26.4%,6.3%

Further structures

SMILES	loss of total cells ([1]; 1.39 µM)	loss of total cells ([1]; 2.78 µM)	loss of total cells ([1]; 5.56 µM)	loss of total cells ([1]; 11.11 µM)	loss of total cells ([1]; 22.22 µM)	synaptosome phagocytosis ([2]; 1.39 µM)	synaptosome phagocytosis ([2]; 2.78 µM)	synaptosome phagocytosis ([2]; 5.56 µM)	synaptosome phagocytosis ([2]; 11.11 µM)	synaptosome phagocytosis ([2]; 22.22 µM)
COc1c2c(cc3c1OCO3)CC[N+](C)=C2	-7.6%	3.2%	9.4%	11.3%	-3.8%	87.5%	112%	69.5%	102%	106%
COC(=O)[C@]1(C)CC[C@]2(C)CC[C@]3(C)C4=CC=C5C(=CC(=O)C(O)=C5C)[C@]4(C)CC[C@@]3(C)[C@@H]2C1	9.7%	58.1%	68.8%	104%	103%	98.3%	21.3%	0%	0%	0%
CC(C)C[C@H](CN)CC(=O)O	-34.9%	-22.9%	-6.9%	-12.5%	-2.3%	102%	82.6%	116%	121%	109%
CC1CC(Cl)CCC1C(=O)OC(C)(C)C (stereo not given)	3.2%	26.4%	21%	10.5%	3.8%	81.2%	66.5%	104%	100%	124%
CC(C)N(CCC(C(N)=O)(c1ccccc1)c1ccccn1)C(C)C (stereo not given) [Disopyramide]	8.6%	-22%	7.7%	-10.1%	52%	90.1%	95.1%	87.4%	116%	121%
C[C@]12CC[C@H](O)C[C@H]1CC[C@@H]1[C@@H]2C[C@@H](O)[C@]2(C)[C@@H](C3=CC(=O)OC3)CC[C@]12O	26.4%	-5.3%	-3.8%	43.2%	8.5%	180%	115%	86.9%	42.5%	45.8%
CC(=O)Nc1cc([As](=O)(O)O)ccc1O	-6.2%	-35.6%	-22.3%	11.8%	27.1%	120%	103%	114%	108%	114%
COc1cccc(C2(O)CCCCC2CN(C)C)c1 (stereo not given)	17.4%	1.5%	3.9%	-42.2%	5.7%	142%	98.9%	113%	162%	110%
C=CCN1CC[C@]23c4c5ccc(O)c4O[C@H]2C(=O)CC[C@@]3(O)[C@H]1C5	-29.9%	-22.9%	-20.1%	-13.3%	5.7%	99.7%	108%	106%	111%	123%
CC(C)=CCC[C@]1(C)C=Cc2c(O)c3c(c(CC=C(C)C)c2O1)O[C@]12C(=C[C@@H]4C[C@H]1C(C)(C)O[C@@]2(C/C=C(/C)C(N)=O)C4=O)C3=O	-22.1%	-0.7%	31.3%	61.9%	55.2%	75.1%	56%	78.2%	28.1%	31.2%
COP(=O)(OC)OC=C(Cl)Cl	-4.1%	18.6%	-1.5%	-17.2%	11.9%	109%	107%	124%	166%	110%
CC(C)CC(N(C)C)C1(c2ccc(Cl)cc2)CCC1 (stereo not given) [Sibutramine]	-32.3%	-5.6%	0.6%	22.6%	2.8%	79.9%	119%	104%	106%	117%
C[C@]12CCC(=O)C[C@@H]1CC[C@@H]1[C@@H]2CC[C@]2(C)C(=O)CC[C@@H]12 [5alpha-ANDROSTAN-3,17-DIONE]	16.2%	19.9%	6.5%	13.8%	16.7%	80.8%	120%	83.3%	112%	114%
O=C(O)CCCO	-9.1%	1.5%	1.5%	7%	16.4%	118%	84.1%	98.4%	97.1%	99.7%
C[C@@]12C(=O)OC(=O)[C@]1(C)[C@H]1CC[C@@H]2O1	-2.5%	24.9%	27.5%	57.3%	46.2%	84.5%	109%	70.1%	12.9%	11.1%
O=C(O)CCCOc1ccc(Cl)cc1Cl	8.3%	8.3%	0%	-4.6%	0%	92.2%	96%	140%	81.2%	57.7%
O=P1(N(CCCl)CCCl)NCCCO1 (stereo not given) [Cyclophosphamide monohydrate]	-8%	-28.8%	-30%	-10.7%	28.3%	119%	124%	122%	116%	106%
C[C@@H]1CC[C@@]2(OC1)O[C@H]1[C@@H](O)[C@H]3[C@@H]4CC[C@H]5C[C@@H](O[C@@H]6O[C@H](CO)[C@H](O[C@@H]7O[C@H](CO)[C@@H](O)[C@H](O[C@@H]8OC[C@@H](O)[C@H](O)[C@H]8O)[C@H]7O[C@@H]7O[C@H](CO)[C@H](O)[C@H](O[C@@H]8O[C@H](CO)[C@@H](O)[C@H](O)[C@H]8O)[C@H]7O)[C@H](O)[C@H]6O)[C@H](O)C[C@]5(C)[C@H]4CC[C@]3(C)[C@H]1[C@@H]2C	-28.6%	4%	-5.3%	3.2%	0.4%	85.7%	113%	103%	100%	71.6%
CC[C@@H](C)C(=O)O[C@H]1[C@H](O)[C@H]2[C@@H](CN3C[C@@H](C)CC[C@H]3[C@@]2(C)O)[C@@H]2C[C@]34O[C@]5(O)[C@@H](OC(=O)[C@@](C)(O)CC)CC[C@@]3(C)[C@@H]5[C@@H](OC(C)=O)[C@@H](OC(C)=O)[C@H]4[C@@]21O	-0.4%	-4.7%	23.2%	-6.3%	-1.5%	105%	84.3%	105%	118%	133%
